# Laboratory results reported in US20230058895A1, “PHYSIOLOGICALLY ACCEPTABLE EUTECTIC MIXTURES OF CANNABIDIOL” (priority 2021, published 2023).
# Experiments:
# [1] = Solubility of CBD and CBD EM in triglycerides / lipids (MCT or LCT oils); type: physicochemical; details: ambient temperature, CBD without EM
# [2] = existing oral dosage forms (e.g., Epidiolex, softgels, tablets, edibles); Millar et al. 2020; cited from earlier work
smiles,measurement,setting,value
"C=C(C)[C@@H]1CCC(C)=C[C@H]1c1c(O)cc(CCCCC)cc1O [CBD, cannabidiol]",CBD solubility in MCT or LCT oils,[1],25-35 % w/w
same,bioavailability (BA),[2],about 6%
